The values below come from the supplement of paper PMC6411743.

The chains behind the UniProt entries cited, without tags or fusion partners. Where a name states a change or a piece, a line headed by the entry shows the natural chain unless it says otherwise.
UniProt P62070: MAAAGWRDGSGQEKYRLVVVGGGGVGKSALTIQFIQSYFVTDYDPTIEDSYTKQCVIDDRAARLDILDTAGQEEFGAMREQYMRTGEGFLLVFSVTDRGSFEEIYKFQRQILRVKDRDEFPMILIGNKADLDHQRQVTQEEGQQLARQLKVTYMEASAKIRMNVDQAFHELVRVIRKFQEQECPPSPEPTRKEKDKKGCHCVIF
UniProt Q7Z5L2: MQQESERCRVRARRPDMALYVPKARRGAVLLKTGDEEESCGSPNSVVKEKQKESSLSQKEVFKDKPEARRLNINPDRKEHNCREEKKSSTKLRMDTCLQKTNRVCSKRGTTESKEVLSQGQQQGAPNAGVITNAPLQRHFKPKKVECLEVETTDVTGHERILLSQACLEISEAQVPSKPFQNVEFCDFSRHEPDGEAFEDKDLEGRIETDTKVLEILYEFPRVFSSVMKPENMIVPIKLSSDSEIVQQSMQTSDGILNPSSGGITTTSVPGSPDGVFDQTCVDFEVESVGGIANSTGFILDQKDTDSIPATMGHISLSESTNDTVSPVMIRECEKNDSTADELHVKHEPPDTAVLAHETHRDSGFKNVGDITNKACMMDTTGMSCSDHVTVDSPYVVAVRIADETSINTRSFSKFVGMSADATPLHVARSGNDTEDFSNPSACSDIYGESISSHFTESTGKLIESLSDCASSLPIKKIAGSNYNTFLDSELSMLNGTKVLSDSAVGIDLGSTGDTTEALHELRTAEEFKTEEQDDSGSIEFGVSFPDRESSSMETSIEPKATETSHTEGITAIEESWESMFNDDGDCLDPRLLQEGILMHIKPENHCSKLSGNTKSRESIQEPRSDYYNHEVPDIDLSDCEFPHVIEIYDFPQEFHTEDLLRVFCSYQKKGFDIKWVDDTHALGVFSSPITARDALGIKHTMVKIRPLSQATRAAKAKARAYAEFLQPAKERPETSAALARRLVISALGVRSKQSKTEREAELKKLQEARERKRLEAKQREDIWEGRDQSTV
UniProt P09913: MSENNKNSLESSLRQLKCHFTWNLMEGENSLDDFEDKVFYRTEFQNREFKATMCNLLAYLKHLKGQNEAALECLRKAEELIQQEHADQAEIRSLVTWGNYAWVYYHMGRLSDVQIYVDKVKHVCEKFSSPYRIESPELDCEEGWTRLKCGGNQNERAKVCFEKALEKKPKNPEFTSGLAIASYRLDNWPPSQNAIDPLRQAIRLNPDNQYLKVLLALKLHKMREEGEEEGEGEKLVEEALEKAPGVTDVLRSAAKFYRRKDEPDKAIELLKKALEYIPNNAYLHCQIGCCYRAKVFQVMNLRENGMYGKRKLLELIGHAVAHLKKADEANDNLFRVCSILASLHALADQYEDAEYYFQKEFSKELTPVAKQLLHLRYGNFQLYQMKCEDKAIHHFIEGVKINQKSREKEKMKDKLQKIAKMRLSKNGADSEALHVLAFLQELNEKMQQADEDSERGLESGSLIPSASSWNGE
UniProt Q9UKF7: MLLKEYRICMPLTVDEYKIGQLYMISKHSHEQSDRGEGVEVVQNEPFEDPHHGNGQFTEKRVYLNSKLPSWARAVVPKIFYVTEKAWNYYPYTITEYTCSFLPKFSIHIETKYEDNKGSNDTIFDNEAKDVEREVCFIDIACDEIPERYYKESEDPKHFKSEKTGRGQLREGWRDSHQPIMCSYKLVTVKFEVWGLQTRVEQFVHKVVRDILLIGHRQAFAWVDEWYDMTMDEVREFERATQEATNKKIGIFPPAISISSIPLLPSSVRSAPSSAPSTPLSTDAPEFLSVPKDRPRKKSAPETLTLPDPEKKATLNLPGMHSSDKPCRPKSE
UniProt P28370, whole entry: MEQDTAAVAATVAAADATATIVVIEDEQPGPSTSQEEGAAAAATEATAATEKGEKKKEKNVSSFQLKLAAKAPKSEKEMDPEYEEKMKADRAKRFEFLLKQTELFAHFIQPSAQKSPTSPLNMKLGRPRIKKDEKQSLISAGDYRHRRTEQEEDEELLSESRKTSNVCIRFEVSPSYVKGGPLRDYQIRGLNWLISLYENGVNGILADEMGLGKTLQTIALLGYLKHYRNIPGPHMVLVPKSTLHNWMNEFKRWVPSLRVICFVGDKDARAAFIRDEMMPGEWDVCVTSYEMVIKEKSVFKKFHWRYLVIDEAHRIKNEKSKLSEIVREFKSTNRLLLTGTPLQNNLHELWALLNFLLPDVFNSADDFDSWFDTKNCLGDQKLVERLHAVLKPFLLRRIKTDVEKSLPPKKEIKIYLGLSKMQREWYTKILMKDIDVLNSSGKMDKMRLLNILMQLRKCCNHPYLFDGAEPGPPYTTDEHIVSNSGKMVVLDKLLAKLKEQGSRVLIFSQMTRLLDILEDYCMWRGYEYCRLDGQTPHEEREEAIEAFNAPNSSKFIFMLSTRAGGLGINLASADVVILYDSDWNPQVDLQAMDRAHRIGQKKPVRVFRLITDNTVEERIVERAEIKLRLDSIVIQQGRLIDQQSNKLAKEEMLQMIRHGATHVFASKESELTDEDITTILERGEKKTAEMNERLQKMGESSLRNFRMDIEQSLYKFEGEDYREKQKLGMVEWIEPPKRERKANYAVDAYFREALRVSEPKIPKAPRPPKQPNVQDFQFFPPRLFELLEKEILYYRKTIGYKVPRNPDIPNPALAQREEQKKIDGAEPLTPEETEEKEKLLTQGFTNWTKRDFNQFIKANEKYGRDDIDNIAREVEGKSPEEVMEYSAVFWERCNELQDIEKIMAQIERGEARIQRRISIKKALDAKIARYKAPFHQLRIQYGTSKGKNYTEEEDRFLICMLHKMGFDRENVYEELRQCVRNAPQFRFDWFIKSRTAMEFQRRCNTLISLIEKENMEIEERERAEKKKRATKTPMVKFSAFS
UniProt Q86UU0: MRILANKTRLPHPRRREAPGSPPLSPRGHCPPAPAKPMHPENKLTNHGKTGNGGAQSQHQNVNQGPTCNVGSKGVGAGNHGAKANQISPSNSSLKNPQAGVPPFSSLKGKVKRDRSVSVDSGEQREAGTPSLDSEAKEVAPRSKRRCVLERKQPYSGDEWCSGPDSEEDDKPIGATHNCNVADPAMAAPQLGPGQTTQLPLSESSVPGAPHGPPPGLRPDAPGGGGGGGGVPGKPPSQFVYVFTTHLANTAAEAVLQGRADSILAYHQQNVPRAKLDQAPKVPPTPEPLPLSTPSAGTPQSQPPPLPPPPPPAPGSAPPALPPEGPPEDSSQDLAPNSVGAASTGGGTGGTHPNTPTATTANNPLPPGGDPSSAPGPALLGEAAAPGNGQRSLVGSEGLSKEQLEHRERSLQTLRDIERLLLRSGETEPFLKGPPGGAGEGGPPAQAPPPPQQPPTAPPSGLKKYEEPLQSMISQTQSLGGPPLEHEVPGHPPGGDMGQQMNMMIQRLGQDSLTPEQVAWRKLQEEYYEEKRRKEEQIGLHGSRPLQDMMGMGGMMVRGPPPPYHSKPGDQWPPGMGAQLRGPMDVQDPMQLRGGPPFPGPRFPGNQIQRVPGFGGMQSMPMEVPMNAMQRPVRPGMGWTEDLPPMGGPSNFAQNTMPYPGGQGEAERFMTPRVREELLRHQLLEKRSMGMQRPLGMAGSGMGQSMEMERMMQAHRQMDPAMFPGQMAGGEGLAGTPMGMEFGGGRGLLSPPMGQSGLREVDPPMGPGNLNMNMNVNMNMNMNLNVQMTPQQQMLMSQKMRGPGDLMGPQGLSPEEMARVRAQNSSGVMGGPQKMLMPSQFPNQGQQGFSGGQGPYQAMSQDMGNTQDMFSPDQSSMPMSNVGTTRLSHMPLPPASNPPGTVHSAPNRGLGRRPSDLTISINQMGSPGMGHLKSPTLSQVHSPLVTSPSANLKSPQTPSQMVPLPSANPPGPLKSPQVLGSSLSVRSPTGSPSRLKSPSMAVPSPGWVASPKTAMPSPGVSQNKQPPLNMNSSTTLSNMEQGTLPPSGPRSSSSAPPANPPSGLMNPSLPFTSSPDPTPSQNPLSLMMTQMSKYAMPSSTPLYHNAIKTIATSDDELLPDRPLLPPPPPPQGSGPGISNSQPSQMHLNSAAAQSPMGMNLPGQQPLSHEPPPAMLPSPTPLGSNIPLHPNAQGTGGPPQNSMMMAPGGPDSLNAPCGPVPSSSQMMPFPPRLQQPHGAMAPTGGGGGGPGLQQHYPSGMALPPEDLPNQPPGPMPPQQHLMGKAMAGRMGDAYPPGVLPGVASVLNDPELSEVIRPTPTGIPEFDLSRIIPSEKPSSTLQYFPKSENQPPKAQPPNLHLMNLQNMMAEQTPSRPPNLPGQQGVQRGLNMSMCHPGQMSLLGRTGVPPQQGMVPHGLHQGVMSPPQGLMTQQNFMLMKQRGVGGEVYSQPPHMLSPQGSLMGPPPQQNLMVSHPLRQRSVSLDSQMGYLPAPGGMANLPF
UniProt Q9UBW5: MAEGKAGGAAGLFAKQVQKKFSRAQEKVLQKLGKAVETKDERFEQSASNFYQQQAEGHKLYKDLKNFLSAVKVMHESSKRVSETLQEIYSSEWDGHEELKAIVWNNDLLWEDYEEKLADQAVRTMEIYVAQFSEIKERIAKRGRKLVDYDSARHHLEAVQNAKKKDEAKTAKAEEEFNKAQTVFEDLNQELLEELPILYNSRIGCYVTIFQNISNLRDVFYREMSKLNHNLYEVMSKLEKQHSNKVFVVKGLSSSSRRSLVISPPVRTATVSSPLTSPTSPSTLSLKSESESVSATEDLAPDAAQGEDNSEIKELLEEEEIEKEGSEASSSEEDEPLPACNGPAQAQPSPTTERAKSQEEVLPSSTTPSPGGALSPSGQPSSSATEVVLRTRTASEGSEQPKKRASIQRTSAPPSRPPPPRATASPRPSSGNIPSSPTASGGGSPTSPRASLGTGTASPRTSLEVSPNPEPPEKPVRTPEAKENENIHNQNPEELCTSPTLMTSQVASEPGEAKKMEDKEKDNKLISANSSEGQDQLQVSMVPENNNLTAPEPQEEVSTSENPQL
UniProt O15484: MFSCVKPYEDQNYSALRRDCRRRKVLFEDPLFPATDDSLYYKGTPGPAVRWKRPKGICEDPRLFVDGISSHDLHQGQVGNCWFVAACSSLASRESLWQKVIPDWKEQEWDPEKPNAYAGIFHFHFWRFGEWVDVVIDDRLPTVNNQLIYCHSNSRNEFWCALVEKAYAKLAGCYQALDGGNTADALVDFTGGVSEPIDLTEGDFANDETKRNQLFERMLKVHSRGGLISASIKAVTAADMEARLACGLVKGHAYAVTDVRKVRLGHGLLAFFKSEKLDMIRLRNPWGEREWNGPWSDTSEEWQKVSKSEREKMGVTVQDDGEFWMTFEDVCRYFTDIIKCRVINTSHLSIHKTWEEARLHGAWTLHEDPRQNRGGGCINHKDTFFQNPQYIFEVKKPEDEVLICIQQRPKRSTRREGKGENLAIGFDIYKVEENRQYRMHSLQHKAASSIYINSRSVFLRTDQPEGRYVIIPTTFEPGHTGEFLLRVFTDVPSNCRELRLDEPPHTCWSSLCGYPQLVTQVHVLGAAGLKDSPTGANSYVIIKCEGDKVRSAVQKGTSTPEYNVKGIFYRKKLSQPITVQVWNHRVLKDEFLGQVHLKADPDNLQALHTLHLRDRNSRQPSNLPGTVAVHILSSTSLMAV
UniProt O14772: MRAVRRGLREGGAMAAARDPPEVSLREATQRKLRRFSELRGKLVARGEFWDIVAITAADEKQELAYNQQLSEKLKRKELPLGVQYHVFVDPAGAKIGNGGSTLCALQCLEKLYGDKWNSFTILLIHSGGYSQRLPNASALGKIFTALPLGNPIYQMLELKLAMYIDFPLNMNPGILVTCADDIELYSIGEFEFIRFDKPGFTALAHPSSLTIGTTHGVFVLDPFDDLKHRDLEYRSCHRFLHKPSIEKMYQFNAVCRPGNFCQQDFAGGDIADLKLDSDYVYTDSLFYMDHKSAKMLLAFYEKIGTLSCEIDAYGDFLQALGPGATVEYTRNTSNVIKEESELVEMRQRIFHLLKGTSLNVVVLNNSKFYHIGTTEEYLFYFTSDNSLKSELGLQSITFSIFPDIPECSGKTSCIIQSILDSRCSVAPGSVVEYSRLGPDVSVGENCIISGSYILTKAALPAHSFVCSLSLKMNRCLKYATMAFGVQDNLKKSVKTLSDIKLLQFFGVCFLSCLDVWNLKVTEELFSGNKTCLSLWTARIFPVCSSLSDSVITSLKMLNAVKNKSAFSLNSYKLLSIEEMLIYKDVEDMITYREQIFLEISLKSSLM
UniProt Q86VE9: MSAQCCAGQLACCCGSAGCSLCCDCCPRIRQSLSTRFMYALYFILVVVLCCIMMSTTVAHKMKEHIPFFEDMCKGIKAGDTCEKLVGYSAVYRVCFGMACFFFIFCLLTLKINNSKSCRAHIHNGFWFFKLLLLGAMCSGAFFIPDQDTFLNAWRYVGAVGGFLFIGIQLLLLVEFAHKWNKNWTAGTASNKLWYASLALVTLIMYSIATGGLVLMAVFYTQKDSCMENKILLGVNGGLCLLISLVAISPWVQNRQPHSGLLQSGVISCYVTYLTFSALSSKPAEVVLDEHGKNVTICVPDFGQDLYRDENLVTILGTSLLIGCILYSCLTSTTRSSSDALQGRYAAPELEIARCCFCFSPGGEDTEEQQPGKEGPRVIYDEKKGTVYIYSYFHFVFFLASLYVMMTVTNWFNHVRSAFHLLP

± gives the standard deviation of the averaged measurements. This is a selection; strong and weak results do not stand in their true shares. Most values lie at the level of the controls, where differences are scatter.

Compound in this test: Nc1ncnc2c1ncn2[C@@H]1O[C@H](COP(=O)(O)OP(=O)(O)OP(=O)(O)O)[C@@H](O)[C@H]1O [adenosine triphosphate]
Briefly: NP40-soluble protein abundance relative to vehicle (solubility fold change) (ratio); higher = more soluble protein in presence of ATP. The essentials:
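Jurkat crude lysate prepared with a Dounce homogeniser was treated at eight concentrations spanning 0.1 to 10 mM, 10 min at room temperature then 3 min at 37 °C. Solubilisation with 0.8% NP40 and benzonase and ultracentrifugation preceded TMT labelling of the supernatant for LC-MS/MS. Fold change against the detergent-processed vehicle was determined per replicate from vsn-normalised intensities, across three independent experiments.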

A0A0A6YY96|P48200 (UniProt P48200): the NP40-soluble protein abundance stood at 1.03 ± 0.093 (concentration: 0.1mM) and 1.04 ± 0.046 (concentration: 0.5mM). Taken in the same sequence, the figures for A0A087WZ13|E9PAU2 (UniProt Q8IY67) were 0.99 ± 0.013 and 0.876 ± 0.013.

As for “A0A0C4DGH2|P62070 and related entries (UniProt P62070)”, the NP40-soluble protein abundance amounted to 1.04 ± 0.035 (concentration: 0.1mM) and 1.01 ± 0.03 (concentration: 0.5mM). Consider A0A0A0MRU8|Q9Y4X4 (UniProt Q9Y4X4), for which the NP40-soluble protein abundance (concentration: 0.1mM) stood at 0.986 ± 0.15 and the NP40-soluble protein abundance (concentration: 0.5mM) turned out to be 0.965 ± 0.058.

As for A0A0A6YY95|Q9Y240 (UniProt Q9Y240), the NP40-soluble protein abundance runs as follows: (concentration: 0.1mM) 0.98 ± 0.034; (concentration: 0.5mM) 0.9447 ± 0.0062. Regarding “A0A087X0H9|Q5T8P6 and related entries (UniProt Q5T8P6)”, the NP40-soluble protein abundance runs as follows: (concentration: 0.1mM) 1.03 ± 0.016; (concentration: 0.5mM) 1.23 ± 0.046.

As for A0A087WUU9|P47974 (UniProt P47974), the NP40-soluble protein abundance runs as follows: (concentration: 0.1mM) 1.04 ± 0.04; (concentration: 0.5mM) 1.01 ± 0.032. Taken in the same sequence, the figures for “A0A087X0M0|Q7Z5L2 and related entries (UniProt Q7Z5L2)” were 1.02 ± 0.074 and 0.978 ± 0.069. Taken in the same sequence, the figures for “A0A0A0MSI2|B3KPJ4 and related entries (UniProt Q8IXK0)” were 0.937 ± 0.081 and 0.99 ± 0.081. Taken in the same sequence, the figures for “A0A087WT59|A0A087WV45|P02766 (UniProt P02766)” were 0.948 ± 0.11 and 0.953 ± 0.11. Take A0A087X279|P09913 (UniProt P09913): the NP40-soluble protein abundance (concentration: 0.1mM) was 1.08 ± 0.099 and the NP40-soluble protein abundance (concentration: 0.5mM) is 1.05 ± 0.033. Taken in the same sequence, the figures for “A0A087WVF7|F8W719 and related entries (UniProt Q9NZM3)” were 1.01 ± 0.0045 and 1.01 ± 0.065.

For the target A0A0A0MR66, the NP40-soluble protein abundance (concentration: 0.5mM) is 1.09 ± 0.081.

For the target “A0A0A0MRW1|Q5T593 and related entries (UniProt Q8IW50)”, the NP40-soluble protein abundance is, setting by setting: (concentration: 0.1mM) 0.803 ± 0.16; (concentration: 0.5mM) 0.878 ± 0.044. Taken in the same sequence, the figures for “A0A0A0MSH9|Q86WJ1 and related entries (UniProt Q86WJ1)” were 1.04 ± 0.041 and 1.04 ± 0.052.

Take “A0A087X1L0|Q9NS73 and related entries (UniProt Q9NS73)”: the NP40-soluble protein abundance runs as follows: (concentration: 0.1mM) 1.04 ± 0.11; (concentration: 0.5mM) 1.01 ± 0.17. Taken in the same sequence, the figures for A0A0A0MRV0|Q9P2E9 (UniProt Q9P2E9) were 0.947 ± 0.043 and 0.95 ± 0.038.

“A0A0A0MT32|P38571 and related entries (UniProt P38571)”: the NP40-soluble protein abundance runs as follows: (concentration: 0.1mM) 0.928 ± 0.054; (concentration: 0.5mM) 0.909 ± 0.19. Taken in the same sequence, the figures for “A0A0C4DGP0|E7EU35 and related entries (UniProt Q9UKF7)” were 0.986 ± 0.025 and 1.06 ± 0.02. Taken in the same sequence, the figures for “A0A0A0MRP6|B7ZLQ5 and related entries (UniProt P28370)” were 1.1 ± 0.03 and 1.09 ± 0.012. Taken in the same sequence, the figures for A0A0C4DFN1|Q8IWA4 (UniProt Q8IWA4) were 1.04 ± 0.033 and 1.04 ± 0.065. Regarding “A0A087WWC6|P01848 and related entries (UniProt Q6P4I7+P01848)”, the NP40-soluble protein abundance amounted to 0.91 ± 0.051 (concentration: 0.1mM) and 0.968 ± 0.041 (concentration: 0.5mM). Take “A0A087WV81|I3L295 and related entries (UniProt Q9H3L2+O75352+Q1HDL3+J3QS48+I3L1D2+J3QW43+J3QRD5+J3KT75+I3L295)”: the NP40-soluble protein abundance reads like this: (concentration: 0.1mM) 0.983 ± 0.062; (concentration: 0.5mM) 0.949 ± 0.031. In the case of A0A087X0M4|Q9BWU0 (UniProt Q9BWU0), the NP40-soluble protein abundance runs as follows: (concentration: 0.1mM) 1 ± 0.012; (concentration: 0.5mM) 1.03 ± 0.072. Taken in the same sequence, the figures for “A0A0A0MTL5|D6R9R7 and related entries (UniProt Q13309)” were 1.04 ± 0.056 and 1.02 ± 0.08. “A0A0C4DFT8|G3XAA4 and related entries (UniProt Q9NQC1)”: the NP40-soluble protein abundance (concentration: 0.1mM) came out at 1.15 ± 0.062 and the NP40-soluble protein abundance (concentration: 0.5mM) was found to be 1.21 ± 0.055. “A0A087WZX0|Q86UU0 and related entries (UniProt Q86UU0)”: the NP40-soluble protein abundance is, setting by setting: (concentration: 0.1mM) 0.995 ± 0.022; (concentration: 0.5mM) 0.9677 ± 0.0067. Taken in the same sequence, the figures for “A0A087X1Z1|A0A0G2JPW5|A0A0G2JQX1|A0A0G2JSA7|Q96RT8 and related entries (UniProt Q96RT8)” were 0.953 ± 0.014 and 0.963 ± 0.12.

As to “A0A096LP07|A0A096LPJ3|A8K070 and related entries (UniProt Q13098)”, the NP40-soluble protein abundance (concentration: 0.1mM) was 0.943 ± 0.019 and the NP40-soluble protein abundance (concentration: 0.5mM) was 0.953 ± 0.059. Taken in the same sequence, the figures for “A0A087X188|F5H0W4 and related entries (UniProt Q9UBW5)” were 0.998 ± 0.016 and 0.992 ± 0.035. For A0A087WUB9|Q8WYA6 (UniProt Q8WYA6), the NP40-soluble protein abundance runs as follows: (concentration: 0.1mM) 0.988 ± 0.0086; (concentration: 0.5mM) 1.01 ± 0.024.

With A0A0C4DGZ0|A0A087WWE2 (UniProt P24928), the NP40-soluble protein abundance is, setting by setting: (concentration: 0.1mM) 1.04 ± 0.035; (concentration: 0.5mM) 1.08 ± 0.035.

In the case of “A0A087X0C8|O15484 and related entries (UniProt O15484)”, the NP40-soluble protein abundance (concentration: 0.1mM) amounted to 1.04 ± 0.039 and the NP40-soluble protein abundance (concentration: 0.5mM) was 0.983 ± 0.064. As for “A0A0A0MRU0|A0A0C4DH75|A0A0D9SFF8|B4DZ84 and related entries (UniProt Q14168)”, the NP40-soluble protein abundance by setting is: (concentration: 0.1mM) 1.05 ± 0.026; (concentration: 0.5mM) 1.05 ± 0.045. Taken in the same sequence, the figures for “A0A0C4DGS5|B7ZC06 and related entries (UniProt Q08379)” were 0.974 ± 0.031 and 0.968 ± 0.036. Taken in the same sequence, the figures for “A0A0A0MRP2|O14772 and related entries (UniProt O14772)” were 1.14 ± 0.2 and 1.11 ± 0.23.

In the case of “A0A0A0MTB0|A0A0J9YYI4|D6RHG7 and related entries (UniProt Q86VE9)”, the NP40-soluble protein abundance (concentration: 0.1mM) was determined as 0.994 ± 0.067 and the NP40-soluble protein abundance (concentration: 0.5mM) was 0.953 ± 0.11.

Take “A0A075B7B5|A2RUF3 and related entries (UniProt O75044)”: the NP40-soluble protein abundance is, setting by setting: (concentration: 0.1mM) 1.05 ± 0.029; (concentration: 0.5mM) 1.05 ± 0.038.
